Experimental findings from US20190202774A1, “BIARYL COMPOUNDS AS ANTIMICROBIAL AND CHEMOTHERAPEUTIC AGENTS” (priority 2015, published 2019) are described below.

The data set has as its system MRSA strain, USA 300. The experiment in a line: Spontaneous resistance acquisition, plate-based assay. The class given is cell-based, Staphylococcus aureus. As to conditions: 72-h, stationary phase USA 300.

Structures are written as SMILES. Structures can show the parent of a compound that is named as a salt.

Regarding `Oc1c(Cl)cc(Cl)cc1-c1cc(Cl)cc(Cl)c1O` [C59], the “Frequency of Resistance Development” value is listed as “No colonies” (2× MIC), “No colonies” (4× MIC) and “No colonies” (8× MIC).

Take `CN[C@H](CC(C)C)C(=O)N[C@H]1C(=O)N[C@@H](CC(N)=O)C(=O)N[C@H]2C(=O)N[C@H]3C(=O)N[C@H](C(=O)N[C@H](C(=O)O)c4cc(O)cc(O)c4-c4cc3ccc4O)[C@H](O)c3ccc(c(Cl)c3)Oc3cc2cc(c3O[C@@H]2O[C@H](CO)[C@@H](O)[C@H](O)[C@H]2O[C@H]2C[C@](C)(N)[C@H](O)[C@H](C)O2)Oc2ccc(cc2Cl)[C@H]1O` [Vancomycin hydrochloride, reference compound]: the “Frequency of Resistance Development” value is, setting by setting: (2× MIC) 1.83 × 10^−8 ± 7.10 × 10^−9; (4× MIC) 1.56 × 10^−9 ± 7.12 × 10^−10; (8× MIC) 5.77 × 10^−10 ± 2.77 × 10^−10.
